This passage reports survivor count and T/C results from PubChem BioAssay AID328 (DTP/NCI, 2004).

The subject of the assay is BDF1 mice, P388 leukemia ip, median survival T/C. Put plainly: NCI In Vivo Anticancer Drug Screen. Data for tumor model P388 Leukemia (intraperitoneal) in B6D2F1 (BDF1) mice. The conditions noted are these: T/C endpoint: median survival time, higher T/C = longer survival. A digest of the protocol: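 T/C = treated-group survival ÷ vehicle-control survival; tumour transplanted into mice before dosing.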

[1] abbreviates: dose: 50.0 mg/kg/injection, schedule: Q01DX009 (ip), vehicle: saline with Tween-80.
Where [2] appears, read: dose: 200.0 mg/kg/injection, schedule: Q01DX009 (ip), vehicle: saline with Tween-80.
Where [3] appears, read: dose: 12.5 mg/kg/injection, schedule: Q01DX009 (ip), vehicle: saline with Tween-80.
Where [4] appears, read: dose: 100.0 mg/kg/injection, schedule: Q01DX009 (ip), vehicle: saline with Tween-80.
The mark [5] stands for this setting: dose: 200.0 mg/kg/injection, schedule: Q01DX009 (ip), vehicle: saline.
The mark [6] stands for this setting: dose: 10.0 mg/kg/injection, schedule: Q04DX003 (ip), vehicle: Klucel (hydroxypropylcellulose) (HPC).
Setting [7] is: dose: 200.0 mg/kg/injection, schedule: Q04DX003 (ip), vehicle: Klucel (hydroxypropylcellulose) (HPC).
Setting [8] is: dose: 400.0 mg/kg/injection, schedule: Q04DX003 (ip), vehicle: Klucel (hydroxypropylcellulose) (HPC).
The mark [9] stands for this setting: dose: 200.0 mg/kg/injection, schedule: Q04DX003 (ip), vehicle: saline.
[10] abbreviates: dose: 100.0 mg/kg/injection, schedule: Q04DX003 (ip), vehicle: saline.
[11] abbreviates: dose: 400.0 mg/kg/injection, schedule: Q04DX003 (ip), vehicle: saline.

The list is a part of this screen's results and no random one: it gathers tests that were run many times, whatever their T/C, doses with no T/C, and many T/C values between a quarter and a half above the control. Other doses and runs of a compound stand elsewhere. T/C is the treated group as % of the vehicle group. Some doses have a count of surviving animals in place of a T/C: the source files T/C as zero there, which appears to mark a toxic dose or a test without result, not a measured value. Some survivor counts are full or nearly so, which does not show that the dose was tolerated: the source hardly ever lists a survival T/C far under the control, and the zero likely stands for such cases as well. Survivors were counted at the toxicity check, usually on the fifth day, unless a day is given; later deaths do not show. Schedule codes are those of the source, taken here to give the interval after Q, in days (D) or hours (H), and the number of doses after X. For survival time, the PubChem record calls one and a half times the control and up active, and a quarter to a half above the control has no call in these data; cut-offs in other NCI protocols can differ. Some entries hold several experiments; the values are given in rising order. Non-standard residues stand in square brackets, D forms with d. Residues, ends and D or L forms follow the SMILES beside them. ξ: configuration not given here. ξLac(3-iPr) = CC(C)CC(O)C(=O)O; NMeV = CN[CH](C(=O)O)C(C)C; NMeA = CN[CH](C)C(=O)O; βAla = NCCC(=O)O

Regarding `NS(=O)(=O)CS(=O)(=O)Oc1ccccc1`, where the note is “dose: 400.0 mg/kg/injection, schedule: Q01DX001 (ip), vehicle: saline with Tween-80”, the survivor count was 1 of 6.
As to `CCCCCC#CC1OC1(C)C` (stereo unspecified), the T/C under setting [1] was 130 % of control. Also, the survivor count under setting [2] is recorded as 4 of 6.
Consider `CC(C)=CCC1=C(OC2OC(CO)C(O)C(O)C2O)C(=O)c2ccccc2C1=O` (stereo unspecified), for which the T/C runs as follows: (dose: 6.25 mg/kg/injection, schedule: Q01DX009 (ip), vehicle: saline with Tween-80) 140 % of control; under setting [3], 133 % of control. Also, the survivor count under setting [1] is 4 of 6, the survivor count under setting [4] is on record as 1 of 6 and the survivor count under setting [2] was 0 of 6.
Regarding `CC(CC#N)NC(=O)C1CCC(N)=N1` (stereo unspecified), the survivor count under setting [5] is 6 of 6.
For `Nc1nc(-c2ccccc2)cc2ccccc12`, the survivor count (dose: 50.0 mg/kg/injection, schedule: Q04DX003 (ip), vehicle: saline with Tween-80) was 2 of 6.
On to `C[n+]1ccc2cc(-c3ccccc3)c3ccccc3c2c1`, for which, where the note is “dose: 8.0 mg/kg/injection, schedule: Q01DX009 (ip), vehicle: water”, the T/C was 131 % of control.
Regarding `CCOC(=O)c1cc(N)c(C(=O)OCC)cc1N`, the T/C under setting [2] was 125 % of control.
Regarding `COC(=O)C12OCC34C(CC5C(C)=C(O)C(=O)CC5(C)C3C(O)C1O)OC(=O)C(OC(=O)/C=C(\C)C(C)(C)O)C24` (stereo unspecified), the T/C was 132 % of control (dose: 0.05 mg/kg/injection, schedule: Q01DX009 (ip), vehicle: saline); 133 and 140 % of control (dose: 0.1 mg/kg/injection, schedule: Q01DX009 (ip), vehicle: saline); 137 % of control (dose: 0.2 mg/kg/injection, schedule: Q01DX009 (ip), vehicle: saline); 145 % of control (dose: 0.4 mg/kg/injection, schedule: Q01DX009 (ip), vehicle: saline); 133 % of control (dose: 15.0 micrograms/kg/injection, schedule: Q01DX009 (ip), vehicle: saline + alcohol); 133 % of control (dose: 30.0 micrograms/kg/injection, schedule: Q01DX009 (ip), vehicle: saline + alcohol).
Take `Clc1ccc2c(c1)-c1ccccc1C1=NCCN12`: the T/C under setting [6] was 140 % of control. Moreover, the survivor count was 6 of 6 under setting [6]; 0 of 6 (dose: 100.0 mg/kg/injection, schedule: Q04DX003 (ip), vehicle: Klucel (hydroxypropylcellulose) (HPC)); 0 of 6 under setting [7]; 0 of 6 under setting [8].
Regarding `CC1CN1P(=O)(N1CCCC1)N1CC1C` (stereo unspecified), the T/C is 135 % of control (dose: 4.0 mg/kg/injection, schedule: Q01DX009 (ip), vehicle: saline); 138 % of control (dose: 8.0 mg/kg/injection, schedule: Q01DX009 (ip), vehicle: saline); 137 % of control (dose: 11.0 mg/kg/injection, schedule: Q01DX009 (ip), vehicle: saline); 143 % of control (dose: 16.0 mg/kg/injection, schedule: Q01DX009 (ip), vehicle: saline); 134 % of control (dose: 16.5 mg/kg/injection, schedule: Q01DX009 (ip), vehicle: saline). The survivor count (dose: 128.0 mg/kg/injection, schedule: Q01DX009 (ip), vehicle: saline) is 6 of 6 and the survivor count under setting [9] is given as 6 of 6.
As for `CCC(C)C1NC(=O)C2CCCN2C(=O)C(CC(C)C)OC(=O)CCNC(=O)C(C)N(C)C(=O)C(C(C)C)N(C)C1=O` (stereo unspecified) (cyclo([ξLac(3-iPr)]PI[NMeV][NMeA][βAla]); configuration not given here), the T/C (dose: 1.25 mg/kg/injection, schedule: Q01DX009 (ip), vehicle: saline) is 125 % of control.
As to `BrC1C2CCC(CC2)C1Br` (stereo unspecified), the survivor count (dose: 400.0 mg/kg/injection, schedule: Q01DX009 (ip), vehicle: Klucel (hydroxypropylcellulose) (HPC)) is 6 of 6.
As to `CCC[N+](CCC)(CCC)CCC.N#CN=C([SH2+])[SH2+].N#CN=C([SH2+])[SH2+].[Pt+2]`, the survivor count reads like this: under setting [10], 1 of 6; under setting [9], 5 of 6.
In the case of `CC(=O)Nc1ccc2c(c1)Cc1cc(NC=O)ccc1-2`, the survivor count (dose: 1.5 mg/kg/injection, schedule: Q01DX009 (ip), vehicle: Klucel (hydroxypropylcellulose) (HPC)) is 6 of 6; the survivor count (dose: 3.12 mg/kg/injection, schedule: Q01DX009 (ip), vehicle: Klucel (hydroxypropylcellulose) (HPC)) was 6 of 6; the survivor count (dose: 6.25 mg/kg/injection, schedule: Q01DX009 (ip), vehicle: Klucel (hydroxypropylcellulose) (HPC)) is reported as 6 of 6; the survivor count (dose: 25.0 mg/kg/injection, schedule: Q01DX009 (ip), vehicle: Klucel (hydroxypropylcellulose) (HPC)) is recorded as 6 of 6; the survivor count (dose: 50.0 mg/kg/injection, schedule: Q01DX009 (ip), vehicle: Klucel (hydroxypropylcellulose) (HPC)) is listed as 6 of 6; the survivor count under setting [7] is recorded as 6 of 6. The survivor count under setting [8] is on record as 6 of 6.
With `O=C(NC1=NN(c2ccccc2)C(=O)C1)Nc1ccccc1`, the T/C (dose: 350.0 mg/kg/injection, schedule: Q01DX009 (ip), vehicle: saline with Tween-80) is 129 % of control.
Turning to `O=[N+]([O-])c1ccc(NS(=O)(=O)c2cccs2)c([N+](=O)[O-])c1`, the survivor count runs as follows: under setting [4], 3 of 6; under setting [2], 3 of 6.
Turning to `Nc1nc2n[nH]nc2c(=O)[nH]1`, the T/C (dose: 25.0 mg/kg/injection, schedule: Q01DX010 (ip), vehicle: alkali diluted with saline) was 135 % of control and the T/C (dose: 100.0 mg/kg/injection, schedule: Q01DX010 (ip), vehicle: alkali diluted with saline) is 136 % of control.
Turning to `C(=NCCc1ccccc1)c1ccccc1B1OB(c2ccccc2C=NCCc2ccccc2)OB(c2ccccc2C=NCCc2ccccc2)O1`, the survivor count under setting [7] was 6 of 6.
With `C[N+](C)(C)C12CCCCCC1SC2` (stereo unspecified), the survivor count under setting [10] is reported as 4 of 6.
Take `C[N+](C)(C)CCCC[N+](C)(C)C`: the survivor count by setting is: (dose: 400.0 mg/kg/injection, schedule: Q01DX009 (ip), vehicle: saline) 0 of 6; under setting [11], 2 of 6.
Regarding `Cc1c(Cl)cccc1NC(=O)/C=C/C(=O)O`, the T/C under setting [4] was 131 % of control.
In the case of `CCN(CC)CCNc1ccc(COC(=O)NC)c2sc3ccccc3c(=O)c12`, the T/C (dose: 3.13 mg/kg/injection, schedule: Q01DX009 (ip), vehicle: saline with Tween-80) was 132 % of control. In addition, the survivor count under setting [3] is 5 of 6.
With `O=C(NO)c1cc(O)c(O)c(O)c1`, the T/C (dose: 100.0 mg/kg/injection, schedule: Q01DX005 (ip), vehicle: distilled water + Tween-80) was 140 % of control. Moreover, the survivor count (dose: 800.0 mg/kg/injection, schedule: Q01DX005 (ip), vehicle: distilled water + Tween-80) is given as 4 of 6.
In the case of `CCCCCCCCCCCCN1C(=O)[N+](C)(C)N=C1[O-]`, the survivor count under setting [2] is listed as 5 of 6.
Consider `c1nnc(NCNc2nncs2)s1`, for which the survivor count (dose: 100.0 mg/kg/injection, schedule: Q01DX010 (ip), vehicle: saline) is 6 of 7; the survivor count under setting [5] is given as 6 of 6; the survivor count under setting [9] was 6 of 7; the survivor count under setting [11] is given as 1 of 7.
As to `S=c1[nH]nc(Nc2ccccc2Cl)s1`, the survivor count (dose: 400.0 mg/kg/injection, schedule: Q01DX009 (ip), vehicle: saline with Tween-80) is 0 of 6.
As for `C[C@H]1[C@H](O)[C@H]2[C@@H](CCC3=CC(=O)CC[C@@]32C)[C@@H]2CC[C@H](O)[C@@]12C`, the survivor count under setting [4] is 6 of 6.
As for `CN=c1ccc2nc3ccc(N)cc3sc-2c1`, the survivor count (dose: 100.0 mg/kg/injection, schedule: Q01DX005 (ip), vehicle: saline with Tween-80) is listed as 1 of 5 and the survivor count (dose: 200.0 mg/kg/injection, schedule: Q01DX005 (ip), vehicle: saline with Tween-80) was 0 of 5.
On to `O=C(NO)c1ccc(O)c(O)c1`, for which the T/C reads like this: (dose: 50.0 mg/kg/injection, schedule: Q01DX005 (ip), vehicle: water) 140 % of control; (dose: 100.0 mg/kg/injection, schedule: Q01DX005 (ip), vehicle: water) 129 % of control.
